Data published in paper PMC4695049.
These are yes or no findings as the source states them, for the method shown. In cells and extracts the contact can be indirect. Some binding calls cover weakened binding; strength is not graded here.

By UniProt entry, the sequences of proteins in these tests, tags left out.
UniProt Q9GZV5: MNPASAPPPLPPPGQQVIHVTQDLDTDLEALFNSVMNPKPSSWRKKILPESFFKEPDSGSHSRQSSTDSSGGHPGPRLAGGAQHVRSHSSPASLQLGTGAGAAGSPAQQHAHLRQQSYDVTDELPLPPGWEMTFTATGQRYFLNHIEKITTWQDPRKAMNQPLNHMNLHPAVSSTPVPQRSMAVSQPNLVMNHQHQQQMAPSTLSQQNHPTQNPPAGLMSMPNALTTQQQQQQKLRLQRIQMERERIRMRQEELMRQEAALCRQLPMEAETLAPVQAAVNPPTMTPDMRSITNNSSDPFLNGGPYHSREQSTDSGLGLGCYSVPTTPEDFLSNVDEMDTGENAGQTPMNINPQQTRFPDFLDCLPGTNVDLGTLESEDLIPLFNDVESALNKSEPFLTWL
UniProt Q13950: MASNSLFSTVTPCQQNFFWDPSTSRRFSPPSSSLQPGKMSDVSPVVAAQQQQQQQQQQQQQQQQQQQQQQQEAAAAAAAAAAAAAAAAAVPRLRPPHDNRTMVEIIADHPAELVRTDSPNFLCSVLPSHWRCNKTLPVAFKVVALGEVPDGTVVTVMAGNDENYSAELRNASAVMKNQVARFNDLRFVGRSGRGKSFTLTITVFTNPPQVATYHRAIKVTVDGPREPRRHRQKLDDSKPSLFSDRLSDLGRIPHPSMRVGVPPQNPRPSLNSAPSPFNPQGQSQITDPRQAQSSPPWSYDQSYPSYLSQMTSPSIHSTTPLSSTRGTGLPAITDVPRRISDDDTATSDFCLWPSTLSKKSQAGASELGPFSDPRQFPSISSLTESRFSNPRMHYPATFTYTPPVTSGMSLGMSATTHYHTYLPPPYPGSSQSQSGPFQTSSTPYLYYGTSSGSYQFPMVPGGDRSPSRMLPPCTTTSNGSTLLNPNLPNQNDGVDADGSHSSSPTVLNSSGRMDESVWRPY

Columns and labels:
[1] = biological target: TAZ (transcriptional co-activator with PDZ-binding motif) (human (endogenous in MCF7)) (UniProt Q9GZV5); assay: co-IP; as a1, but cells nutrient deprived for 16 hr and not treated with TGFβ (t = 0)
[2] = biological target: TAZ (transcriptional co-activator with PDZ-binding motif) (human (endogenous in MCF7)) (UniProt Q9GZV5); assay: co-IP; nuclear lysates (400 ug, NucBuster) of MCF7-RUNX2 Tet.OFF cells without doxycycline, treated with 2 ng/mL TGFβ for 4 and 24 hr; IP with YAP/TAZ antibody and Protein G-Sepharose in Co-IP buffer (50 mM Tris pH 7.5, 150 mM NaCl, 1 mM EDTA, 1 mM EGTA, 1% Triton X-100, 0.5% NP-40); blots probed for RUNX2 and TAZ; rabbit IgG and beads alone as controls

binding [2]: binds
Substance: Flag-tagged RUNX2 (from UniProt Q13950 1-521)
binding [1]: no binding (condition: cells without TGFβ treatment)
